Measurements: PubChem BioAssay AID504467 (National Center for Advancing Translational Sciences (NCATS), 2011)
About 7,700 (2.3%) of roughly 330,000 compounds were called active. Inconclusive results, whose numbers are uncertain, are shown with a selection of clear calls. Calls follow the shape of the dose curve; as a rule, active = well fitted inhibition curve with a large enough effect; inconclusive = small, poorly fitted or top-dose-only effect, or effect the other way; inactive = flat fitted curve, though single readings scatter. A potency beside an inconclusive call is a rough fit, not a confirmed value.

Assay: qHTS screen for small molecules that inhibit ELG1-dependent DNA repair in human embryonic kidney (HEK293T) cells expressing luciferase-tagged ELG1; also: nearly all actives have a fitted effect of over 55% in size
Details: HEK293T ELG1-luciferase reporter, luminescence, 16 h, DNA damage induced by 5-fluorouridine; series mostly up to 46.1 µM
Procedure, shortened: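 DMSO vehicle served as the neutral condition. Each well held 2,000 cells given 5-fluorouridine plus compound; after 16 hr at 37 °C/5% CO2, ONE-Glo was added and luciferase measured 30 min later.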
Potency is read from the fitted curve at half-maximal effect.

Row | Structure (SMILES) | Potency
1 | CN(C)c1ccc(/C=C2\C(=N)N3N=C(CC(=O)N4CCCCC4)SC3=NC2=O)cc1 | inconclusive: 18.3 µM [activator, partial curve, poor fit]
2 | Cc1ccc(CONC(=O)c2ccc(OC(F)F)cc2)cc1 | inconclusive: 29.1 µM [activator, single point]
3 | O=C1CC(N(O)C2CC(=O)N(Cc3ccccc3)C2=O)C(=O)N1Cc1ccccc1 (stereo not given) | inactive
4 | COc1ccc(-n2nc(C(=O)NCC(=O)N3CC(C)CC(C)C3)c3ccccc3c2=O)cc1 (stereo not given) | active: 13 µM
5 | Cc1c(C(=O)N2CCCC2)oc2c1-c1nn(CC(=O)NCCCN3CCCCC3)cc1CC2 | inconclusive: 18.3 µM [activator, single point]
6 | CCc1ccc(N/C(=N/c2nc(C)cc(C)n2)NC(C)=O)cc1 | inconclusive: 18.3 µM [inhibitor, single point]
7 | Cn1c(SCC(=O)NCc2ccco2)nnc1-c1ccccc1 | inconclusive: 11.6 µM [activator, partial curve, poor fit]
8 | CCCCN(CCCC)S(=O)(=O)c1ccc(NC(=O)Cc2cccs2)cc1 | inconclusive: 29.1 µM [inhibitor, single point]
9 | COc1ccc(CCNC(=O)c2c(C)nn(CC(C)C)c2Cl)cc1OC | inconclusive: 16.4 µM [activator, partial curve, poor fit]
10 | C=CCNc1ncnc2c1cnn2-c1ccc(Cl)cc1 | inconclusive: 1.64 µM [activator, full curve]
11 | Cc1ccc(OCC(=O)O/N=C(\N)c2ccccn2)cc1C | inconclusive: 2.59 µM [activator, partial curve]
12 | Cc1cccc(NC(=O)Cn2c(=O)n(Cc3ccco3)c(=N)c3c4c(sc32)COC(C)(C)C4)c1 | inconclusive: 16.4 µM [inhibitor, single point]
13 | Cc1cccc(N(CC(=O)N/N=C/c2ccc(OCC(=O)NCc3ccco3)cc2)S(C)(=O)=O)c1C | inactive
14 | O=c1[nH]c(CN2CCN(c3ccccc3)CC2)nc2scc(-c3ccccc3)c12 | inactive
15 | O=c1[nH]n(-c2ccccc2)c(=O)c2ccccc12 | inconclusive: 9.2 µM [activator, partial curve]
16 | COc1ccc(S(=O)(=O)N2CCCCC2)cc1NC(=O)c1cccs1 | inconclusive: 20.6 µM [activator, single point]
17 | Cc1c(C)c2c(OCC(=O)N3CCC(O)CC3)cc3c(c2oc1=O)CCC(C)(C)O3 | inconclusive: 29.1 µM [inhibitor, single point]
18 | C/C(=N\NC(N)=S)c1ccc2c(c1)OCCO2 | inconclusive: 8.2 µM [activator, partial curve]
19 | C#CCOCCOCCOCCNc1nc(N2CCN(C(=O)CCCCCCCCCCNC(=O)[C@@H](CCSC)n3cc(CCO)nn3)CC2)nc(N2CCN(C(=O)CCCCCCCCCCNC(=O)[C@H](CCC(=O)O)n3cc(CCCCCN)nn3)CC2)n1 | inactive
20 | Cc1nc2c(C)cccc2cc1C(=O)N/N=C/c1ccc(C(=O)O)cc1 | inactive
21 | S=C(Nc1ccccc1)Nc1nc2ccccc2n1CCOc1ccc(Br)cc1 | inconclusive: 23.1 µM [activator, single point]
22 | COc1ccc(NC(=O)c2c(C)nn(-c3ccccc3)c2Cl)cc1 | inconclusive: 35.5 µM [activator, single point]

Entries listed so far with a COOH group, in the order listed:
Row | Structure (SMILES) | Potency
19 | C#CCOCCOCCOCCNc1nc(N2CCN(C(=O)CCCCCCCCCCNC(=O)[C@@H](CCSC)n3cc(CCO)nn3)CC2)nc(N2CCN(C(=O)CCCCCCCCCCNC(=O)[C@H](CCC(=O)O)n3cc(CCCCCN)nn3)CC2)n1 | inactive
20 | Cc1nc2c(C)cccc2cc1C(=O)N/N=C/c1ccc(C(=O)O)cc1 | inactive

Next results follow:

Row | Structure (SMILES) | Potency
23 | CCS(=O)(=O)n1nc(-c2ccccc2)nc1SC | inconclusive: 23.1 µM [activator, single point]
24 | CC(=O)Nc1cccc(C(=O)OCC(=O)N2CCC(c3ccccc3)=N2)c1 | inconclusive: 6.51 µM [activator, single point]
25 | Cc1nc2ccc(NC(=O)[C@@H](NC(=O)c3c(F)cccc3F)C(C)C)cc2s1 | inconclusive: 32.6 µM [activator, single point]
26 | COc1ccc(C(=O)/C=C/c2cccs2)c(OC(=O)c2cccc([N+](=O)[O-])c2)c1 | inconclusive: 0.731 µM [activator, full curve]
27 | Cc1cc(-c2nnc(-c3cc4ccccc4oc3=O)o2)c(C)n1-c1ccccc1 | inconclusive: 11.6 µM [activator, partial curve, poor fit]
28 | C/[N+]([O-])=C\C1C(=O)CCCC1=O | inactive
29 | COc1ccc(NCC(=O)Nc2cccc(C(F)(F)F)c2)cc1S(=O)(=O)N1CCOCC1 | inconclusive: 7.3 µM [inhibitor, partial curve]
30 | COc1cc(NC(=O)c2ccccc2-c2ccccc2)cc(OC)c1 | inactive
31 | CCC(C)NC(=O)c1cc(CC(C)C)on1 (stereo not given) | inconclusive: 20.6 µM [activator, partial curve]
32 | CC1CCN(S(=O)(=O)c2ccc(C(=O)Nc3ccccn3)cc2)CC1 | inconclusive: 3.26 µM [activator, partial curve]
33 | O=C(CN1CCN(S(=O)(=O)c2ccc(Cl)cc2)CC1)NC(=O)NC1CCCCC1 | inconclusive: 20.6 µM [inhibitor, single point]
34 | COc1ccc(-c2cn3cc(C)ccc3n2)cc1F | inconclusive: 0.461 µM [activator, full curve]
35 | COC(=O)c1ccccc1NC(=O)CNc1cc(OC)c(OC)cc1C | inconclusive: 1.84 µM [inhibitor, full curve]
36 | Cc1sc2ncnc(NCCc3ccc(S(N)(=O)=O)cc3)c2c1C | active: 18.4 µM
37 | Nc1ccc(C(=O)OCC(=O)N2c3ccccc3Sc3ccccc32)cc1[N+](=O)[O-] | inactive
38 | c1ccc(CCN2CCN(c3ncnc4c3cnn4-c3ccccc3)CC2)cc1 | inconclusive: 20.6 µM [inhibitor, single point]
39 | COc1ccc(C(=O)N[C@H](C(=O)NCCc2ccc3c(c2)OCCO3)C(C)C)cc1 | inactive
40 | Nc1ccc2sc(N)nc2c1 | inconclusive: 14.6 µM [activator, partial curve, poor fit]
41 | O=C(Nc1ccc(SC(F)F)cc1)C1CC(=O)N(Cc2ccccc2)C1 (stereo not given) | inactive
42 | CCC1=Nc2cc(C(=O)NCCCN3CCN(C)CC3)ccc2Sc2ccccc21 | inconclusive: 16.4 µM [activator, partial curve, poor fit]
43 | COc1ccc(N2CCN(C(=O)c3cc(=O)[nH]c4ccccc34)CC2)cc1 | inactive
44 | S=C(Nc1cc(Cl)cc(Cl)c1)N1CCN(c2ccccn2)CC1 | inactive

Row | Structure (SMILES) | Potency
45 | Cc1cccc(N2CC(C(=O)Nc3nnc(SCC(=O)NCC4CCCO4)s3)CC2=O)c1 (stereo not given) | inactive
46 | Cc1ccc(NC(=O)C(=O)N2CCCC2)cc1Cl | inconclusive: 14.6 µM [activator, partial curve]
47 | O=C(CN1CCOCC1)Nc1nc(-c2ccc3c(c2)CCN3S(=O)(=O)c2ccccc2)cs1 | inconclusive: 14.6 µM [inhibitor, partial curve]
48 | CCOCCn1c(N2CCN(c3ccc(OC)cc3)CC2)nc2c1c(=O)n(C)c(=O)n2C | inconclusive: 3.26 µM [inhibitor, partial curve, poor fit]
49 | Oc1ccc(-c2csc(Nc3ccccn3)n2)c(O)c1 | inconclusive: 2.59 µM [activator, full curve]
50 | CC(=O)C1=C(O)C(=O)N(c2ccc(O)cc2)C1c1ccccc1F (stereo not given) | inactive
51 | CCn1c(C)nc2cc(C(=O)NNC(=O)Nc3ccc(Cl)cc3)ccc21 | inconclusive: 1.3 µM [activator, full curve]
52 | CCOC(=O)C1(CCOc2ccccc2)CCN(Cc2ccc(-n3cccn3)cc2)CC1 | inconclusive: 10.3 µM [inhibitor, partial curve]
53 | CC(=O)c1cc2c(cc1NC(=O)CSc1nc3ccccc3[nH]1)OCO2 | inconclusive: 25.9 µM [inhibitor, partial curve]
54 | COc1ccc(C(=O)C2CCCN(Cc3ccc4nonc4c3)C2)c(OC)c1 (stereo not given) | inconclusive: 18.3 µM [inhibitor, single point]
55 | O=C(Nc1cc2c(cc1C(=O)O)OCCCO2)c1ccc(F)cc1F | inconclusive: 16.4 µM [activator, single point]
56 | Cn1c(SCC(=O)Nc2cccc(F)c2)nc2c(c1=O)SCC2 | inconclusive: 10.3 µM [inhibitor, partial curve, poor fit]
57 | CCOC(=O)c1ccc(NC(=O)C2CCCN(S(=O)(=O)c3ccc(F)cc3)C2)cc1 (stereo not given) | active: 16.4 µM
58 | COc1ccc(S(=O)(=O)N2CCCC2CNC(=O)C(=O)NCc2ccccc2)cc1 (stereo not given) | inconclusive: 25.9 µM [inhibitor, single point]
59 | CN1CCN(c2ccc(NC(=O)c3cc(S(N)(=O)=O)ccc3N3CCOCC3)cc2)CC1 | inconclusive: 20 µM [activator, single point]
60 | CC(C)CN(C(=O)COC(=O)c1cnc(Cl)c(Cl)c1)c1c(N)n(Cc2ccccc2)c(=O)[nH]c1=O | inconclusive: 9.2 µM [inhibitor, partial curve, poor fit]
61 | O=C(NN=C1C2CC3CC1CC(Cl)(C3)C2)c1ccccn1 | inconclusive: 20.6 µM [activator, single point]
62 | O=C(c1ccc(CSc2nc3ccncc3[nH]2)cc1)N1CCCCCC1 | inconclusive: 7.3 µM [activator, partial curve]
63 | Cc1ccc(OCCC(=O)OCC(=O)Nc2c(C)nn(-c3ccccc3)c2C)cc1 | inconclusive: 25.9 µM [activator, single point]
64 | O=C(CCCC(=O)OCC(=O)c1ccc(Cl)cc1Cl)Nc1cc(C(F)(F)F)ccc1Cl | inactive
65 | COc1ccc(N2CC(C(=O)N[C@H](C(=O)NC(C)c3ccccc3)C(C)C)CC2=O)cc1 (stereo not given in full) | inactive

From compound 47 as far as 48, copied from above:
Row | Structure (SMILES) | Potency
47 | O=C(CN1CCOCC1)Nc1nc(-c2ccc3c(c2)CCN3S(=O)(=O)c2ccccc2)cs1 | inconclusive: 14.6 µM [inhibitor, partial curve]
48 | CCOCCn1c(N2CCN(c3ccc(OC)cc3)CC2)nc2c1c(=O)n(C)c(=O)n2C | inconclusive: 3.26 µM [inhibitor, partial curve, poor fit]
